Measured values: patent US20230403873A1, “ORGANIC COMPOUND AND ORGANIC LIGHT-EMITTING DEVICE” (CANON KABUSHIKI KAISHA, priority 2022, published 2023)

Tests used:
[1] = Evaluation of organic light-emitting device (vacuum-deposited, compound as guest in light-emitting layer), IVL measurement and continuous driving; details: for EQE (external quantum efficiency): at 10 mA/cm^2, guest in EM33 host, ratio by weight 99:1; for LT80 (durability time when the luminance reached 80%): relative value, compound A defined as 1, continuous driving at 5 mA/cm^2
[2] = Evaluation of organic light-emitting devices (spin-coated light-emitting layer): EL spectrum compared with PL spectrum in toluene solution; details: for Change in wavelength of first peak maximum in solution and device: EL spectrum of device vs PL spectrum of 10^-5 mol/L toluene solution; for Full width at half maximum: EL spectrum of device, guest in EM33 1:99

SMILES | EQE (external quantum efficiency) [1] | LT80 (durability time when the luminance reached 80%) [1] | Change in wavelength of first peak maximum in solution and device [2] | Full width at half maximum [2]
CC(C)(C)c1cc2ccc3cc4c(c5ccc(c1)c2c35)-c1ccc(-c2ccc(-c3ccc(-c5ccc6c(c5)C(C)(C)c5cc7ccc8cc(C(C)(C)C)cc9ccc(c5-6)c7c89)cc3)cc2)cc1C4(C)C [Compound A] | 5.03% | 1 h | 48 nm | 140 nm
CC(C)(C)c1cc2ccc3cc4c(c5ccc(c1)c2c35)-c1ccc(-c2cc(-c3ccc5c(c3)C(C)(C)c3cc6ccc7cc(C(C)(C)C)cc8ccc(c3-5)c6c78)ncn2)cc1C4(C)C [Compound (1)] | 5.48% | 1.3 h |  | 
CC(C)(C)c1cc2ccc3cc4c(c5ccc(c1)c2c35)-c1ccc(-c2ccc3c(c2)C2(c5ccccc5-c5ccccc52)c2cc(-c5ccc6c(c5)C(C)(C)c5cc7ccc8cc(C(C)(C)C)cc9ccc(c5-6)c7c89)ccc2-3)cc1C4(C)C [Compound (25)] |  |  | <1 nm | 47 nm
CC(C)(C)c1cc2ccc3cc4c(c5ccc(c1)c2c35)-c1ccc(-c2ccc3c(c2)C2(c5ccccc5-3)c3ccccc3-c3ccc(-c5ccc6c(c5)C(C)(C)c5cc7ccc8cc(C(C)(C)C)cc9ccc(c5-6)c7c89)cc32)cc1C4(C)C [Compound (29)] |  |  | 6 nm | 75 nm
